Assay results: PMC7190159, “The L motifs of two moss pentatricopeptide repeat proteins are involved in RNA editing but predominantly not in RNA recognition”

By UniProt entry, the sequences of proteins in these tests, tags left out.
UniProt A0A2K1IWP1, entry or part of it V188N M289T V390T D420N L491N D521S V592N D623S: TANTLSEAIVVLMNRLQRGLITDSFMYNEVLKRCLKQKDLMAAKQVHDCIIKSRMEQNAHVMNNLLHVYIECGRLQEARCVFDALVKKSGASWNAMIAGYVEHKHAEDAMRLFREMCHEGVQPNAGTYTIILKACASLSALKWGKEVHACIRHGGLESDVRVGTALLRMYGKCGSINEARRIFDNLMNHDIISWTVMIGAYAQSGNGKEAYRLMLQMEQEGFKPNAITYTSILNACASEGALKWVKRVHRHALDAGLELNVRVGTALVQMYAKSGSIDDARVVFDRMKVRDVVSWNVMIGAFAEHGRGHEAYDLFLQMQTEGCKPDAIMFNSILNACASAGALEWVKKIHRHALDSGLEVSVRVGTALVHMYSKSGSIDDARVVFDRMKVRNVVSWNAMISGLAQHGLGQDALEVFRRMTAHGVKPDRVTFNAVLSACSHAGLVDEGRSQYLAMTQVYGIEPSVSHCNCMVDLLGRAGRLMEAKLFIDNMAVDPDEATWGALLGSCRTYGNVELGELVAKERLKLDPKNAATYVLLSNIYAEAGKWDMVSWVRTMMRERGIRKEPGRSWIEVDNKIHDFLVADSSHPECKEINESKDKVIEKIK

Molecular target: 56ΔDYW-nad3L V188N,M289T,V390T,D420N,L491N,D521S,V592N,D623S (Physcomitrella patens) (UniProt A0A2K1IWP1)
Experiment: EMSA
Settings: slight decrease relative to wt, still binds; 40 mM Tris pH 8.0, 100 mM NaCl, 4 mM DTT, 0.1 mg/mL BSA, 10% glycerol, 25°C; protein 10 min, then 50 pM RNA 15 min; native 6% PAGE; recombinant protein; protein details: N-term thioredoxin, C-term 6xHis, V5 epitope; label: 5'-32P

“AUUUUUAUAUAGGUAUAGACGGUAUCUCUUCAUUUU [nad4-edit]”: binds more weakly.

A weaker result is weaker than the reference pair of the same experiment.
